Laboratory results: patent EP1350523B1 (priority 1992, dated 1994)

Tested on: vascular smooth muscle cells
Assay: 24 hour 3H-thymidine DNA synthesis inhibition assay compared with 24 hour 3H-leucine protein inhibition assay
Format: cell-based
Details: Example 8, Figs. 10A-10C
Method: The ability of various therapeutic agents to inhibit DNA synthesis and protein synthesis in vascular smooth muscle cells was tested. ^3H-leucine and ^3H-thymidine uptake and cytotoxicity assays were conducted in accordance with the following protocols.
3H-leucine uptake: Vascular smooth muscle cells at 40,000 cells/ml were seeded in sterile 24 well plates at 1ml/well. The plates were incubated overnight at 37°C, 5% CO2, 95% air in a humidified atmosphere (saturation). Log dilutions of the therapeutic agent of interest were incubated with the vascular smooth muscle cells for 5 minutes or 24 hours. […] Vials were counted on a Beckman LS2800 Liquid Scintillation Counter interfaced with Beckman "Data Capture" software for conversion to a Lotus 1-2-3® file and analysis using Lotus 1-2-3®.
^3H-thymidine uptake: Vascular smooth muscle cells were incubated in complete media with 5% FBS (Gibco) overnight at 37°C in a humidified, 5% CO2 environment in sterile 24 well plates. […] The cells were visually scored for viability and cell number. […] Vials were counted on a Beckman LS2800 Liquid Scintillation Counter interfaced with Beckman "Data Capture" software for conversion to a Lotus 1-2-3° file and analysis using Lotus 1-2-30®. […]

SMILES: CN[C@@H]1C[C@H]2O[C@@](C)([C@@H]1OC)n1c3ccccc3c3c4c(c5c6ccccc6n2c5c31)C(=O)NC4 [staurosporin]
- protein synthesis inhibition and cytotoxicity at concentrations where significant DNA synthesis inhibition occurs: minimal protein synthesis inhibition and cytotoxicity
